The chains behind the UniProt entries cited, without tags or fusion partners. Where a name states a change or a piece, a line headed by the entry shows the natural chain unless it says otherwise.
UniProt Q3TDN0: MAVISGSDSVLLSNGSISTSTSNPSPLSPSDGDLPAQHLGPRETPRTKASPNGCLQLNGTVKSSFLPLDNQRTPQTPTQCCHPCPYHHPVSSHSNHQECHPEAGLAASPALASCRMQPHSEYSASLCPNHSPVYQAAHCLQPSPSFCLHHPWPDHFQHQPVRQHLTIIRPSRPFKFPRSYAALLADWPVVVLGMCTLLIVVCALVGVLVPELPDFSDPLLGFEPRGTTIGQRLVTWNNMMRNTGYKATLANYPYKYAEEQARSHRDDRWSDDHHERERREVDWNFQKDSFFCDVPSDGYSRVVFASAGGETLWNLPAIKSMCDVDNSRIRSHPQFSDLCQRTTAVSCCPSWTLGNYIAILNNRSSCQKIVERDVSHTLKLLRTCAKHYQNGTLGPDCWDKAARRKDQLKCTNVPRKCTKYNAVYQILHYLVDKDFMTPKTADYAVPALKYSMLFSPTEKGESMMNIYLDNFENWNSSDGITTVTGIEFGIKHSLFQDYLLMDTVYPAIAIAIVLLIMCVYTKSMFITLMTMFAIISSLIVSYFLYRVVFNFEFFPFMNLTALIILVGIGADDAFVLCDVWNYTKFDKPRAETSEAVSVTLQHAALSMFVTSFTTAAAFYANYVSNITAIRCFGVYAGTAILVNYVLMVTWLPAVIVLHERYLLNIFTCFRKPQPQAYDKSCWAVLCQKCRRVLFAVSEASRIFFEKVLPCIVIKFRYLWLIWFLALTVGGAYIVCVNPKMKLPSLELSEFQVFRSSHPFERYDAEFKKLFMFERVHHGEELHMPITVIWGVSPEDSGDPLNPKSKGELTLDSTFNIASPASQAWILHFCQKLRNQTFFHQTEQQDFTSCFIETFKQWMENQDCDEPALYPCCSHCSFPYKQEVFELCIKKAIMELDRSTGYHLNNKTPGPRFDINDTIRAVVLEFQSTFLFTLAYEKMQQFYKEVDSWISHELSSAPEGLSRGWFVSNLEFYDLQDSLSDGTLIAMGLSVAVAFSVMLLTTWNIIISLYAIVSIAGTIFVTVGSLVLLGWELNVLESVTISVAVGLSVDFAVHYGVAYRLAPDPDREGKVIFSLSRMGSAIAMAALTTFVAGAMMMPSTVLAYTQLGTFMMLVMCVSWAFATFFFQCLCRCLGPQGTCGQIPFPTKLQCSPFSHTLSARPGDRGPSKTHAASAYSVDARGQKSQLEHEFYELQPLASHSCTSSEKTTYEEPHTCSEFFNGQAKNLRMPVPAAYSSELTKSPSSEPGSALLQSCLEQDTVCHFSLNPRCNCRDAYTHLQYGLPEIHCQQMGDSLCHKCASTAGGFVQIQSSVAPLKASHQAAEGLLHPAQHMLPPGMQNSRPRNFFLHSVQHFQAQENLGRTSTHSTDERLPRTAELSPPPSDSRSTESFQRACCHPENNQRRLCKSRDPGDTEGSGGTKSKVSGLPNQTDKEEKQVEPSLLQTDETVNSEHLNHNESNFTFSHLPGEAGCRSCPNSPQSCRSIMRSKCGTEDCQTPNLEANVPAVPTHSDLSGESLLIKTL
UniProt Q62226: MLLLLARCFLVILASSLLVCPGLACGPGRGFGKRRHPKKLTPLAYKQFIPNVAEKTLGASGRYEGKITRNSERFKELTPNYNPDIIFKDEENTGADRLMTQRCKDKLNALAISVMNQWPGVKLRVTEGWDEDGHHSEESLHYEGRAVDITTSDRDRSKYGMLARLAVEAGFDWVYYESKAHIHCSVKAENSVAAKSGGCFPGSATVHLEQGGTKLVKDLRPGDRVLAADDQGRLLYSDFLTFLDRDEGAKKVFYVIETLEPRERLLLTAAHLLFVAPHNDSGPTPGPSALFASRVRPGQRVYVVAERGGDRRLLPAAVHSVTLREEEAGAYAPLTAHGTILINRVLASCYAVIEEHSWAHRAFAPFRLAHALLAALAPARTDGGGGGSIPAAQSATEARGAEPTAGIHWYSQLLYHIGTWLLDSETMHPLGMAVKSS

According to doi:10.1101/2020.05.06.080820:

Target: DISP-FLAG (Dispatched, SHH deployment protein, FLAG-tagged) (UniProt Q3TDN0)
Test: co-IP

binding: binds
Substance: Sonic Hedgehog (SHH) (from UniProt Q62226) (ligand)

These are yes or no findings as the source states them, for the method shown. Binding seen in cells or lysates may run through a third protein. Binding calls can cover weak binding; strength is not graded here.
